For four molecules, binding results are on record in patent US20110201109A1.

No constants are given. Whether binding was seen depends on the method and setting. In cells and extracts the contact can be indirect. Some entries that bind do so weakly or less than the wild type. Tags and fused reporters may be left off the sequences shown.

Assay in all cases: GST pull-down from co-transfected 293 cells, anti-Myc Western blot
On the technique in general: In western blotting, separated proteins are transferred to a membrane and probed.

One assay deals with Myc-tagged Ronin (human) (UniProt Q96EK4).
Assay [1] deals with T1, Myc-tagged HCF-1 (aa 1-429) (human) (UniProt P51610).
T1 sequence (looked up): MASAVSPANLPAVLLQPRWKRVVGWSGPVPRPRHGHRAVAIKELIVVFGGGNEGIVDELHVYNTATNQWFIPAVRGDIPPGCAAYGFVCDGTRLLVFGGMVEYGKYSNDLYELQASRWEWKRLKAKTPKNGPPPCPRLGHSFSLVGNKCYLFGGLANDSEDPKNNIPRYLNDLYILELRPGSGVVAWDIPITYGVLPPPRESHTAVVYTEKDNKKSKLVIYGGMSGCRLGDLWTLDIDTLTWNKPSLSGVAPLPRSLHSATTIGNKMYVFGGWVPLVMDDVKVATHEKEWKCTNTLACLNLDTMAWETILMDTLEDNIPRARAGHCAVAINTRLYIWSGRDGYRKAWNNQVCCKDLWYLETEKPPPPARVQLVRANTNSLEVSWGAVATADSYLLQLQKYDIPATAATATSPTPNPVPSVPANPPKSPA

The target in the next assay is T2, Myc-tagged THAP7 (human) (UniProt Q9BT49).
T2 sequence (looked up): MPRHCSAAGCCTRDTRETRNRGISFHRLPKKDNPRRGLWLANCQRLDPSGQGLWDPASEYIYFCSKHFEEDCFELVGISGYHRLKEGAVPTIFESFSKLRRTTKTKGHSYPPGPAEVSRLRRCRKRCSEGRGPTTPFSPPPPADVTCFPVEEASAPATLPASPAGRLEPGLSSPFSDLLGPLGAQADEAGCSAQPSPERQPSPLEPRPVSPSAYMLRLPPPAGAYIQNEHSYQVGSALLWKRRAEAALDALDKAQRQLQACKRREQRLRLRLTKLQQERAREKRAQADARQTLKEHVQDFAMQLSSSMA

Assay [2] deals with T3, Myc-tagged THAP7 (human), Q9BT49.
T3 chain: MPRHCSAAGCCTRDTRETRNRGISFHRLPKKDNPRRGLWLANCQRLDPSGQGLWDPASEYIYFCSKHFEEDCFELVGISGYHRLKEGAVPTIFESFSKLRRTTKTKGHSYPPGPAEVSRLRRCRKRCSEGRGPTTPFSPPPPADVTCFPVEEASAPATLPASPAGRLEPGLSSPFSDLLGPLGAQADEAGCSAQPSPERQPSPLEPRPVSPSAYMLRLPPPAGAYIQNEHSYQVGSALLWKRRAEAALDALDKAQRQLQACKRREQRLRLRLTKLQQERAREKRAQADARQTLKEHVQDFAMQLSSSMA
As to conditions: remark: other sources report otherwise.

“GST-tagged Ronin (full-length) (from UniProt Q96EK4 1-314)”: the binding entry (with Myc-tagged Ronin (human); in assay [1]) was “binds” each time.

B1: GST-tagged Ronin-N (aa 1-103) (protein, human, UniProt Q96EK4 1-103, looked up, not shown: a dimerising Fc or GST)
chain: MPGFTCCVPGCYNNSHRDKALHFYTFPKDAELRRLWLKNVSRAGVSGCFSTFQPTTGHRLCSVHFQGGRKTYTVRVPTIFPLRGVNERKVARRPAGAAAARRR
As to B1, in the assay with Myc-tagged THAP7 (human), the binding result is listed as “binds”.

B2: GST-tagged Ronin (full-length), Q96EK4 1-314 (protein, human, UniProt Q96EK4 1-314, looked up, not shown: a dimerising Fc or GST)
chain: MPGFTCCVPGCYNNSHRDKALHFYTFPKDAELRRLWLKNVSRAGVSGCFSTFQPTTGHRLCSVHFQGGRKTYTVRVPTIFPLRGVNERKVARRPAGAAAARRRQQQQQQQQQQQQQQQQQQQQQQQQQQQQQSSPSASTAQTAQLQPNLVSASAAVLLTLQATVDSSQAPGSVQPAPITPTGEDVKPIDLTVQVEFAAAEGAAAAAAASELQAATAGLEAAECPMGPQLVVVGEEGFPDTGSDHSYSLSSGTTEEELLRKLNEQRDILALMEVKMKEMKGSIRHLRLTEAKLREELREKDRLLAMAVIRKKHGM
In the case of B2, the binding entry in assay [2] is recorded as “binds”.

B3: GST-tagged Ronin-C (aa 132-315) (protein, human, UniProt Q96EK4 132-314, looked up, not shown: a dimerising Fc or GST)
chain: QSSPSASTAQTAQLQPNLVSASAAVLLTLQATVDSSQAPGSVQPAPITPTGEDVKPIDLTVQVEFAAAEGAAAAAAASELQAATAGLEAAECPMGPQLVVVGEEGFPDTGSDHSYSLSSGTTEEELLRKLNEQRDILALMEVKMKEMKGSIRHLRLTEAKLREELREKDRLLAMAVIRKKHGM
On to B3, for which the binding result (with Myc-tagged Ronin (human); in assay [1]) was “binds” in each case.
